# Measured values published in the supplement of paper PMC12067093, “Discovery and optimisation of a covalent ligand for TRIM25 and its application to targeted protein ubiquitination” (Chemical Science, 2025).
# By UniProt entry, the sequences of proteins in these tests, tags left out. Where a name states a change or a piece, a line headed by the entry shows the natural chain unless it says otherwise.
# UniProt Q5VZM2, whole entry, looked up: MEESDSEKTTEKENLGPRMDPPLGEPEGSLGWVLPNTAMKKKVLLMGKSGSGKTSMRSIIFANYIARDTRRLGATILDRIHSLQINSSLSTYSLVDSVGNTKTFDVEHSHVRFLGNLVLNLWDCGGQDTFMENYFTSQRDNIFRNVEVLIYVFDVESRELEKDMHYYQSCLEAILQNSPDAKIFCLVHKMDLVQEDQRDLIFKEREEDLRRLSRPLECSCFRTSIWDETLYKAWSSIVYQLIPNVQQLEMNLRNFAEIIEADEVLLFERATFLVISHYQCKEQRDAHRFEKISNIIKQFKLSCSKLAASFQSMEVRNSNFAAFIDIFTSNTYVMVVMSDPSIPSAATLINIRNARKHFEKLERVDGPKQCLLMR
# UniProt Q9Y3Z3: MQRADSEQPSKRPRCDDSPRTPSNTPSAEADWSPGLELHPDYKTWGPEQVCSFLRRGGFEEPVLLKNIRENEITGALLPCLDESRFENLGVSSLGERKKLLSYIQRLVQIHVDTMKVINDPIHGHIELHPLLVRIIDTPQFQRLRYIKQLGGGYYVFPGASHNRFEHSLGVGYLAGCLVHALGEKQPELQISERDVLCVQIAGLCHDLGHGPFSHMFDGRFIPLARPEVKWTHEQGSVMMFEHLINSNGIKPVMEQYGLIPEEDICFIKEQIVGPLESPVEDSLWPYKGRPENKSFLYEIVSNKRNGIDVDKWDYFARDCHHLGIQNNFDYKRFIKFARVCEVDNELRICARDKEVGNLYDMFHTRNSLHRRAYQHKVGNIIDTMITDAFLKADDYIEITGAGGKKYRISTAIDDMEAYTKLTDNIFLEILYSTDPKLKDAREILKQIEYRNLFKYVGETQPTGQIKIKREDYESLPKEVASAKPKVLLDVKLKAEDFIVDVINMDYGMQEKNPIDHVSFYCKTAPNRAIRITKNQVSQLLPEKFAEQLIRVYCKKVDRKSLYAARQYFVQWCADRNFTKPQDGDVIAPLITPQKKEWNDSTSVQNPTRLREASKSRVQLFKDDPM
# UniProt Q9UBE0: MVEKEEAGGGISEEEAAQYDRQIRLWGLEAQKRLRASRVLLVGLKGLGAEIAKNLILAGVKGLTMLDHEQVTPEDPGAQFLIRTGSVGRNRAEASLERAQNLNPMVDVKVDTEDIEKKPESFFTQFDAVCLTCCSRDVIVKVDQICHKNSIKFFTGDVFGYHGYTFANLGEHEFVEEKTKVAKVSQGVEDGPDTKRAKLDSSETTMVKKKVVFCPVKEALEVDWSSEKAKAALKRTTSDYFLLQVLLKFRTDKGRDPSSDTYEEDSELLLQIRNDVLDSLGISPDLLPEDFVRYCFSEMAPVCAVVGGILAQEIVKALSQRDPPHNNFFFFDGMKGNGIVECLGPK
# UniProt Q5VWQ0: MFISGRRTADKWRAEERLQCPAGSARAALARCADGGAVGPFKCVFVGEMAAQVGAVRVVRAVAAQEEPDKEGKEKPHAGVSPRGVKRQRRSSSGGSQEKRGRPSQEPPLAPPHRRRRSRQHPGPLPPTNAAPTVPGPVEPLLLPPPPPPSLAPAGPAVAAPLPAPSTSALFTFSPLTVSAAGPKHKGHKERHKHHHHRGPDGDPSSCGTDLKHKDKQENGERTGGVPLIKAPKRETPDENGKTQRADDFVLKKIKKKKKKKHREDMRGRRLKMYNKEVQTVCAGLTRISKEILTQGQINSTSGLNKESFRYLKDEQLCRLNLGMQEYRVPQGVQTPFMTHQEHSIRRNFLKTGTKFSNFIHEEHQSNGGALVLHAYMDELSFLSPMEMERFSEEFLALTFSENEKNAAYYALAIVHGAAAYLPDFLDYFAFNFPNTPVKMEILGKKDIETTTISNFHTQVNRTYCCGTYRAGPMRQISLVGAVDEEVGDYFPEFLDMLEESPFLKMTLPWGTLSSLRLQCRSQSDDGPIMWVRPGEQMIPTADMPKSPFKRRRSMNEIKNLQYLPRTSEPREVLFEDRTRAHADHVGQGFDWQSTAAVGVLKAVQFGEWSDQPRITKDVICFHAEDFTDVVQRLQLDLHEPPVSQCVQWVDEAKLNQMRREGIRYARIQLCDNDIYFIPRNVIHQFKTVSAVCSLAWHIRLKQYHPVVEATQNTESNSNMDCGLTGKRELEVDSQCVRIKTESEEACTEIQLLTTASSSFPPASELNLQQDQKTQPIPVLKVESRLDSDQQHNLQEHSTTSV
# UniProt P19793: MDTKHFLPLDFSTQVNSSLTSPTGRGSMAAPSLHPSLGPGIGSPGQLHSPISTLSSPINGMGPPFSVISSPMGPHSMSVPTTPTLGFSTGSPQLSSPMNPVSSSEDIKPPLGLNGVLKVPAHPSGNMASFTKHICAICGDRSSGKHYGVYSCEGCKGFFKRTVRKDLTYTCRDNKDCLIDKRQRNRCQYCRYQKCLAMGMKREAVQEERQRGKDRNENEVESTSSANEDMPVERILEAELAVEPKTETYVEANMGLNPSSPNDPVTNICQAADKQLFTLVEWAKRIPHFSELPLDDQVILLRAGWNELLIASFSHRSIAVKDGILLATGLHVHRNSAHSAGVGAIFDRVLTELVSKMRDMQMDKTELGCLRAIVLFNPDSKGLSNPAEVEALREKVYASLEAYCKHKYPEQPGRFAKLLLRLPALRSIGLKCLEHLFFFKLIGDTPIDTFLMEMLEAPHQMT
# UniProt P23443: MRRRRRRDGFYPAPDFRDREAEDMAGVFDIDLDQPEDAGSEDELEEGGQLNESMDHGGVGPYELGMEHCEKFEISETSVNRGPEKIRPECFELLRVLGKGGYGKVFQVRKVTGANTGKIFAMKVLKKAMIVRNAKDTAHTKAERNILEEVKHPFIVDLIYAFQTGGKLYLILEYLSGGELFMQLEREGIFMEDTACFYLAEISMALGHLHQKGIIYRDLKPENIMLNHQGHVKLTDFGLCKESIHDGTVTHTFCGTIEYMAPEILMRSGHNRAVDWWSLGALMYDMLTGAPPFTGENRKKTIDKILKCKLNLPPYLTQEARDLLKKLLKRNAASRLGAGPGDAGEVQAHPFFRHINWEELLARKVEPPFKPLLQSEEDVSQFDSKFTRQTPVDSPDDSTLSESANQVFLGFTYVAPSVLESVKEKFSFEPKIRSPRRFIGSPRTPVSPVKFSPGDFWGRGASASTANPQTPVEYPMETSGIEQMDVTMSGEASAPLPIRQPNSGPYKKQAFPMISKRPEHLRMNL
# UniProt Q96T51: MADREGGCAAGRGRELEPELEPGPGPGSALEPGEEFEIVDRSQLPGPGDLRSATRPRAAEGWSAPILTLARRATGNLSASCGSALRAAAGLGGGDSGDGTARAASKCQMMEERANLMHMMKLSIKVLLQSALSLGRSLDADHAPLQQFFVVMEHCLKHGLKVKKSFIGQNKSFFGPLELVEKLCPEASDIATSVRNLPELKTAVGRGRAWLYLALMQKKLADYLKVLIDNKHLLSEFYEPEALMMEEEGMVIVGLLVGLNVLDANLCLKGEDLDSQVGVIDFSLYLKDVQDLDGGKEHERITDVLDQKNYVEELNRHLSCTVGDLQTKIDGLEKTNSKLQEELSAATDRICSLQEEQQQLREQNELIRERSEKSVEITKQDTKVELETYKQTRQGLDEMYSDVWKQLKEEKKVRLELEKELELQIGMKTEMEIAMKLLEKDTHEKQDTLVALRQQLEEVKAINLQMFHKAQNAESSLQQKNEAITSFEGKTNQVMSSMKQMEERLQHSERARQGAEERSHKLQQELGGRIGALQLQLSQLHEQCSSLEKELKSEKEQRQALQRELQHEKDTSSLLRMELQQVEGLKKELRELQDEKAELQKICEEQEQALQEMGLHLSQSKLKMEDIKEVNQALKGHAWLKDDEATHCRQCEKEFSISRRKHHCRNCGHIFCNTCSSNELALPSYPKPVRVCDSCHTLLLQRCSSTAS
# The list shows a part of the results.
# Compound: Cc1cc(ccc1-c1ccccc1)C(=O)N1CCCN(CC1)C(=O)CCl [compound 10]
# Assay: probe-labelled cysteine peptide fold change vs DMSO (competition) (log2 fold change); higher = less target engagement (more negative = stronger competition)
# Conditions: THP-1, incubation time: 4 h
# 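Also: competitive profiling in live THP-1 cells: cysteine peptides tagged with an iodoacetamide desthiobiotin (IA-DTB) probe, intensity after compound treatment relative to DMSO-treated cells.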
Target,probe-labelled cysteine peptide fold change (10 µM),probe-labelled cysteine peptide fold change (50 µM)
RRAGB_Q5VZM2_280_ATFLVISHYQCK (UniProt Q5VZM2),-0.0897,0.489
SAMHD1_Q9Y3Z3_320_DCHHLGIQNNFDYK (UniProt Q9Y3Z3),-0.0843,0.165
RPS12_P25398_108_KVVGCSCVVVK (UniProt P25398),-0.00346,-0.34
SAE1_Q9UBE0_130+134_KPESFFTQFDAVCLTCCSR (UniProt Q9UBE0),0.0384,-0.492
RPS27A_P62979_126_RECPSDECGAGVFMASHFDR (UniProt P62979),-0.0576,-0.00701
RSBN1_Q5VWQ0_671_IQLCDNDIYFIPR (UniProt Q5VWQ0),-0.0101,0.157
RPS5_P46782_66_KAQCPIVER (UniProt P46782),-0.174,-0.129
RPS12_P25398_106_KVVGCSCVVVK (UniProt P25398),-0.0356,-0.416
RXRA_P19793_171_DLTYTCR (UniProt P19793),-0.079,-0.329
RPS6KB1_P23443_254_ESIHDGTVTHTFCGTIEYMAPEILMR (UniProt P23443),0.0255,-0.0384
RPS16_P62249_25_TATAVAHCK (UniProt P62249),-0.127,-0.145
RUFY1_Q96T51_603_ICEEQEQALQEMGLHLSQSK (UniProt Q96T51),0.16,-0.0904
